# Measurements published in PubChem BioAssay AID2685 (National Center for Advancing Translational Sciences (NCATS), 2010).
# In all, about 320,000 compounds went through this assay and about 2,100 (0.66%) were called active. Inconclusive means that the source gave no clear call. Such entries were picked first, then a sample of the others. The call rests on the fitted dose curve; in most records, active means well fitted inhibition curve with a large enough effect in the signal ratio, with a control signal flat (not every such curve was filed as active); inconclusive means small, poorly fitted or top-dose-only effect, or effect the other way, or a change in a side signal; inactive means flat fitted curve, though single readings scatter; the % refers to the signal ratio. Potencies beside an inconclusive call are fits to weak or partial responses and may not hold up.
# Experiment: qHTS Assay for Lipid Storage Modulators in Drosophila S3 Cells
# Details: BODIPY lipid droplet fluorescence, 18-24 h, cells fed with added oleic acid; lipid storage change, negative = inhibition: at 46.1 µM (top of the series) unless noted
# Summary of the method: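 Drosophila S3 cells loaded with oleic acid (400 uM, as added) and compounds at several concentrations; lipid droplets imaged by 488-nm laser-scanning cytometry, 500–530 nm intensity and object ratio to cell channel. Percent activity normalized to 20 uM Triacsin C.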
# On the % scale 0 is the no-effect control and ±100 the full control effect; potency means the concentration at half of the fitted maximal effect.
SMILES,Potency,"lipid storage change, negative = inhibition"
CCc1ccc(OCC2Cn3c(nc4c3c(=O)[nH]c(=O)n4C)O2)cc1 (configuration not stated),"inconclusive: 0.58 µM [falling, single point]",
CC1Cc2cc(S(=O)(=O)N3CCN(c4ccc(Cl)cc4)CC3)ccc2N1C(=O)C1CC1 (configuration not stated),,inconclusive: 264%
CC(NC(=O)C1CCCCC1)C(c1cccs1)N1CCN(C)CC1 (configuration not stated),,inconclusive: -21.3%
Cn1c(CCC(N)=O)nnc1SCC(=O)Nc1ccccc1C(=O)NC1CC1,"inconclusive: 1.84 µM [falling, partial curve, poor fit]",
CC(=O)Nc1ccc(Oc2ccc3nc(C)[nH]c3c2)cc1,,inconclusive: 200%
Cc1ccc2oc(C(=O)NCc3ccccc3)cc(=O)c2c1,"inconclusive: 3.66 µM [falling, full curve]",
S=C(NCc1cccc(Cl)c1)NC1CCCCC1,,inconclusive: -1.41%
COc1ccccc1N1CCN(C(=O)c2cc3c(-c4ccc(Cl)cc4)nn(C)c3s2)CC1,,inconclusive: 33.4%
CCn1c(CSc2nc(C)cc(C)n2)nnc1SCC(=O)Nc1cccc2ccccc12,"inconclusive: 3.66 µM [activator, partial curve]",
CCCCn1c(CN2CCN(c3ccccc3)CC2)nc2c1c(=O)n(C)c(=O)n2C,active: 20.6 µM,
COCCNCc1ccccc1[N+](=O)[O-],,inconclusive: 43.4%
COc1ccccc1N(CCC#N)C(=O)CSc1ccc2c(c1)OCCO2,,inconclusive: 22.2%
O=C(NNc1nc(-c2ccccc2)cs1)c1ccc(F)cc1,"inconclusive: 0.0052 µM [falling, full curve, poor fit]",
CN1CCN(c2ccc(-c3cccc(NC(=O)COc4ccc(Cl)cc4)c3)nn2)CC1,,inconclusive: 10.4%
COc1ccccc1OCCCCCc1c(C)n[nH]c1C,,inconclusive: 5.05%
CS(=O)(=O)c1ccc2nc(NC(=O)CCNC(=O)c3ccc(Cl)cc3)sc2c1,,inconclusive
COc1cc(CN2CCCC(N3CCN(c4ccc(F)cc4)CC3)C2)ccc1F (configuration not stated),,inconclusive: 4.3%
O=NNc1nc2ccccc2n1Cc1ccccc1,"inconclusive: 0.517 µM [falling, partial curve, poor fit]",
CCOc1ccc(NC(=S)N(CCc2c(C)[nH]c3ccccc23)Cc2cccnc2)cc1,,inconclusive: 35.6%
CN1CCN(/C(=N\O)c2nonc2N)CC1,,inconclusive: 8.71%
CCc1ccc(Nc2n[n+](-c3ccccc3)c(-c3ccc(OCc4ccccc4)cc3)s2)cc1,,inconclusive: -97.7%
COc1ccc(NC2CCCN(C(=O)c3csc(C(C)C)n3)C2)cc1 (configuration not stated),,inconclusive: -3.78%
CCc1nnc(SCC(=O)N2CCCc3ccccc32)nc1CC,,inconclusive: -3.14%
CCCCC(=O)N1CCN(c2nc(-c3ccc(F)cc3)cs2)CC1,"inconclusive: 4.11 µM [falling, partial curve]",
O=C(Nc1ccc2oc(Cc3ccc(Cl)cc3)nc2c1)c1cccnc1,,inconclusive: 0.612%
CCOc1ccc(S(=O)(=O)NCCC(=O)NCc2ccncc2)cc1,,inconclusive: 12.7%

SMILES,Potency,"lipid storage change, negative = inhibition"
COc1ccc(-c2noc(C3CCCN(C(=O)c4ccccc4C)C3)n2)cc1 (configuration not stated),"inconclusive: 20.6 µM [falling, single point]",
COCCn1c(COc2ccc(OC)cc2)nc2ccccc21,"inconclusive: 8.2 µM [activator, partial curve]",
Cc1ccc(Nc2nnc(C)c(=O)[nH]2)cc1,,inconclusive: 5.86%
CCCC(=O)N1CCN(Cc2nc3cc([N+](=O)[O-])ccc3n2C)CC1,,inconclusive: 59.3%
O=S(=O)(c1cccc(-c2nnc3n2CCCCC3)c1)N1CCOCC1,,inconclusive: -46.6%
O=C(c1cc2cc(F)ccc2[nH]1)N1CCCC(Nc2ccc(F)cc2)C1 (configuration not stated),,inconclusive: -27.3%
Cn1c(SCC(=O)c2ccccc2)nnc1C1CC1,"inconclusive: 0.82 µM [falling, full curve]",
CC1CCC(NC(=O)CC2Oc3ccccc3NC2=O)CC1 (configuration not stated),,inconclusive: -15.5%
COc1cccc(OCC(=O)Nc2cc(Cl)ccc2Oc2ccccc2)c1,"inconclusive: 20.6 µM [rising, partial curve]",
O=C(CCc1c[nH]c2ccccc12)OCc1ccc(Br)cc1,,inconclusive: -24.8%
COC(=O)c1ccc(OCC(O)CN2CCN(C(=O)c3ccco3)CC2)cc1 (configuration not stated),"inconclusive: 0.411 µM [falling, full curve]",
CC(C)(C)C1CCC(OC(=O)c2cncc(Br)c2)CC1 (configuration not stated),,inconclusive: -20.3%
O=C(Nc1ccc(NC(=O)N2CCN(c3ccccc3O)CC2)cc1)N1CCN(c2ccccc2O)CC1,"inconclusive: 4.11 µM [activator, single point]",
Nc1ccc2c(c1)OCCOCCOCCOCCOCCO2,,inconclusive: 10.3%
COc1ccc(OC)c(/C=N/NC(=O)c2cc3c(OC)cc(OC)cc3[nH]2)c1,,inconclusive: -26.4%
O=C(COc1cccnc1[N+](=O)[O-])c1c[nH]c2ccccc12,"inconclusive: 29.1 µM [falling, single point]",
CCOc1cc(/C=N/n2cnnc2)ccc1OC(=O)c1cccc([N+](=O)[O-])c1,,inconclusive: -23.2%
COc1ccccc1COC(=O)C(NC(=O)c1ccc(C)cc1)C(C)C (configuration not stated),,inconclusive
Cc1ccc(N2C(=O)[C@@H]3[C@H](C2=O)[C@H]2C=C(C(=O)c4ccccc4)C=CN2[C@@H]3C(=O)c2ccc(Cl)cc2)cc1,,inconclusive: 199%
COc1cccc(CNC(=O)CCC2CCCN(C(=O)c3cc(C)on3)C2)c1 (configuration not stated),,inactive
O=C(Nc1cccc(F)c1)Nc1cccc(Cl)c1,"inconclusive: 29.1 µM [falling, single point]",
COc1cccc(CN(CC(=O)NCC2CCCO2)C(=O)CCC(=O)Nc2cc(C)on2)c1 (configuration not stated),,inconclusive: 9.35%
Cc1ccc(C(=O)NNC(=O)C2CCN(Cc3ccccc3)CC2)cc1,,inconclusive: -32.5%
Cc1ccccc1C(=O)Nc1ccnn1C1CCN(Cc2cccnc2)CC1,"inconclusive: 4.47 µM [activator, single point]",
Nc1nnc(SCC(=O)OCC(=O)NC2CCCCC2)s1,"inconclusive: 16.4 µM [cytotoxic, partial curve, poor fit]",
CCc1ccc(NC(=S)N2CCC(NC(=O)c3ccccc3)CC2)cc1,"inconclusive: 23.1 µM [activator, single point]",

SMILES,Potency,"lipid storage change, negative = inhibition"
Cc1cccn2c(=O)c(C=O)c(Nc3ccccc3)nc12,"inconclusive: 2.06 µM [falling, partial curve]",
Cc1ccc(C(C(=O)Nc2ccc3c(c2)OCO3)N(C)C(=O)Cc2c[nH]c3ccccc23)cc1 (configuration not stated),"inconclusive: 8.2 µM [activator, partial curve, poor fit]",
CC(=O)c1cccc(CN2CCN(C3CCCC3)C(CCO)C2)c1 (configuration not stated),"inconclusive: 4.11 µM [falling, single point]",
Cc1ccc(CNC(=O)c2cccnc2Cl)cc1,,inconclusive: -4.77%
O=c1c2ccccc2oc2nc(-c3cccs3)n(CCc3ccccc3)c(=O)c12,"inconclusive: 32.6 µM [rising, partial curve, poor fit]",
NC(=O)c1ccc(NC(=O)CS(=O)(=O)c2cn(CC(=O)N3CCCC3)c3ccccc23)cc1,"inconclusive: 6.51 µM [activator, full curve]",
Cc1sc2c(c1C)C(=O)NC(c1cccc(O)c1)N2 (configuration not stated),,inconclusive: 16.8%
C/C(=N\O)c1noc(C)c1C(=O)Nc1nccs1,,inconclusive: -41.8%
CCN(CC)CCOc1nc(C)nc2c1oc1ccccc12,,inconclusive: 7.18%
CC(=O)c1cn(C)c(=O)[nH]c1=O,,inconclusive: 25.9%
CC(C)CC(=O)Nc1nc(=S)ss1,"inconclusive: 0.116 µM [falling, full curve, poor fit]",
Oc1ccccc1N=N/C(=N/Nc1ccccc1O)c1ccccc1,"inconclusive: 4.61 µM [activator, partial curve, poor fit]",
CC(C)C[C@@H]1NC(=O)N(CCCn2ccnc2)C1=O,,inconclusive: -117%
C[N+]1(C)CC2([N+](=O)[O-])CC=C(Oc3ccccc3)C([N+](=O)[O-])(C2)C1 (configuration not stated),,inactive
Oc1ccc(Cl)cc1N=Nc1ccccc1,"inconclusive: 29.1 µM [falling, single point]",
COC(=O)N1CC(c2ccccc2)CC1=O (configuration not stated),,inconclusive: -15.5%
O=C(COC(=O)Cc1ccccc1F)Nc1ccc2[nH]c(=O)[nH]c2c1,,inconclusive: 7.49%
Cc1cnc(=O)[nH]c1SCC(=O)c1ccc(F)cc1,,inconclusive: -92.9%
O=C(NC1(Cc2ccc(O)cc2)CCCCC1)c1ccccc1,active: 5.17 µM,
O=C(CSc1nnc(-c2cccnc2)n1Cc1ccco1)Nc1nc(-c2ccc(F)cc2)cs1,,inconclusive: 15.1%
CC1CN(C(=O)C2CCCCC2)C(C)CN1C(=O)C1CCCCC1 (configuration not stated),,inconclusive: -10.3%
COc1cc(C2C3C(=O)N(Cc4ccccc4)C(=O)C3ON2c2ccccc2)cc(OC)c1OC (configuration not stated),,inconclusive: 5.09%
CCOc1cc(C2/C(=C(/O)c3ccc(S(=O)(=O)N4CCCCC4)cc3)C(=O)C(=O)N2CCOC)ccc1O (configuration not stated),,inconclusive: 56.5%
COc1ccc(NS(=O)(=O)c2cccc(C(=O)NNC(=O)c3cccn3C)c2)cc1,"inconclusive: 13 µM [activator, partial curve, poor fit]",
Cc1ccc(N(CC(=O)N2CCN(C3CCCCC3)CC2)S(=O)(=O)c2cccnc2)cc1,,inconclusive: -91.2% [at 0.0737 µM]

# Four records picked at random from the list so far:
SMILES,Potency,"lipid storage change, negative = inhibition"
CC1Cc2cc(S(=O)(=O)N3CCN(c4ccc(Cl)cc4)CC3)ccc2N1C(=O)C1CC1 (configuration not stated),,inconclusive: 264%
CCOc1ccc(NC(=S)N(CCc2c(C)[nH]c3ccccc23)Cc2cccnc2)cc1,,inconclusive: 35.6%
Cn1c(SCC(=O)c2ccccc2)nnc1C1CC1,"inconclusive: 0.82 µM [falling, full curve]",
COc1ccc(NS(=O)(=O)c2cccc(C(=O)NNC(=O)c3cccn3C)c2)cc1,"inconclusive: 13 µM [activator, partial curve, poor fit]",
